Here are results for five targets from the supplement of paper PMC12819154, “High-throughput peptide-centric local stability assay extends protein–ligand identification to membrane proteins, tissues and bacteria” (Nature Structural & Molecular Biology, 2025).

The chains behind the UniProt entries cited, without tags or fusion partners. Where a name states a change or a piece, a line headed by the entry shows the natural chain unless it says otherwise.
UniProt P34209: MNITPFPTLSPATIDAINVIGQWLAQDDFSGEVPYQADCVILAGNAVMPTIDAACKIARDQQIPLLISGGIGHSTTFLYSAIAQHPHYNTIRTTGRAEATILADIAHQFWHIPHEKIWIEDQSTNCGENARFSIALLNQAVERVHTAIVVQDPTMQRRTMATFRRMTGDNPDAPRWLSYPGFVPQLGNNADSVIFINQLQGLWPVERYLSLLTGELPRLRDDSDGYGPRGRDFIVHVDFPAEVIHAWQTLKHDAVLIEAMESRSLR
UniProt P37147: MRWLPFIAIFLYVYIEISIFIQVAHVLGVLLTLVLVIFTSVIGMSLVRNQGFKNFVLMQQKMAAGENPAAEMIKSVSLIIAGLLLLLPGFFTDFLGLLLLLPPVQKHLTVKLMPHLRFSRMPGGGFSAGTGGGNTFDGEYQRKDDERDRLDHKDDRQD
UniProt P39333: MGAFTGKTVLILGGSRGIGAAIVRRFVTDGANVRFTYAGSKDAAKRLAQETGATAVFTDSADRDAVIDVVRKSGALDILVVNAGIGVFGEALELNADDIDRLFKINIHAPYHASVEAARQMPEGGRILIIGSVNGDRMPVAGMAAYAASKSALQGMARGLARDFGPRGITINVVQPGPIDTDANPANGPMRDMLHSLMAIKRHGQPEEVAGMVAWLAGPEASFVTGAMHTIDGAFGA
UniProt P45544: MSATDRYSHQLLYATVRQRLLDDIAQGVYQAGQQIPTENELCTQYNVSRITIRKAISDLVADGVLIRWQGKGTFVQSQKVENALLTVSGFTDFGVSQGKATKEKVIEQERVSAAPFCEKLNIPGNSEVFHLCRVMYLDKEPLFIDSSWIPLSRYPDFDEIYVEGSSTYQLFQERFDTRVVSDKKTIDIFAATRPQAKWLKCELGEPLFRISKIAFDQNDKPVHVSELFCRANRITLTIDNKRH
UniProt P42616: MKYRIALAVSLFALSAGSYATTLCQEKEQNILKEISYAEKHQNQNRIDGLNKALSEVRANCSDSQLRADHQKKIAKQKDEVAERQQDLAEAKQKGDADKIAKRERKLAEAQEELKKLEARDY

Compound in the experiment: CC1(C)S[C@@H]2[C@H](NC(=O)[C@H](N)c3ccccc3)C(=O)N2[C@H]1C(=O)O [ampicillin]
The experiment can be described thus: log2 fold change of tryptic peptide abundance, ligand vs vehicle (limited proteolysis) (log2 ratio); higher = more trypsin-susceptible (destabilized). Particulars: ligand concentration: 10 uM; sample: E. coli crude lysate.

This is one part of the list. Most entries show no effect beyond the scatter of the controls.

On to “UniProt P34209 (peptide sequence: RTMATFR, peptide start residue: 158)”, for which the log2 fold change stood at 0.312.
Next, “UniProt P37147 (peptide sequence: LDHKDDRQD, peptide start residue: 150)”: -0.185.
For the target “UniProt P39333 (peptide sequence: MPVAGMAAYAASK, peptide start residue: 138)”, the log2 fold change was found to be 0.242.
In the case of “UniProt P45544 (peptide sequence: GTFVQSQK, peptide start residue: 72)” it was 0.417; in that of “UniProt P42616 (peptide sequence: EISYAEKHQNQNR, peptide start residue: 34)”, 0.111.
